No constants are given. Whether binding was seen depends on the method and setting. Binding seen in cells or lysates may run through a third protein. Some results given as binding are weak or reduced against the parent protein; the word gives no strength.
Experiments:
[1] = biological target: YEATS domain-containing protein 4 (YEATS4), endogenous in T24 cells (human (endogenous in T24)) (UniProt O95619); test: co-IP; endogenous proteins of T24 cells; lysate in RIPA buffer (150 mM NaCl, 5 mM EDTA, 0.5% NP40, 50 mM Tris-HCl pH 8.0); anti-YEATS4 (Santa Cruz) or anti-IgG with protein A/G agarose, 4 °C overnight; Western blotting
[2] = biological target: SFB-tagged YEATS4, wild type (human) (UniProt O95619); test: co-IP; exogenous (transfected) proteins; set-up shown only in Figures S3I and S4A
[3] = biological target: SFB-tagged YEATS4, wild type (human) (UniProt O95619); test: co-IP; HEK293T cotransfected with YEATS4, HUWE1 and rising amounts of KAT8 for 48 h; IP with streptavidin beads; Western blotting
[4] = biological target: SFB-tagged YEATS4 K64, 65, 69R (3KR) mutant (human) (UniProt O95619); test: co-IP; HEK293T cotransfected with HUWE1 and YEATS4 WT or 3KR for 48 h, 10 µM MG132 for 8 h; IP with streptavidin beads; Western blotting
[5] = biological target: SFB-tagged YEATS4, wild type (human) (UniProt O95619); test: as above

Amino acid sequences for entries named in this document (tags omitted). A change or cut given only in a name is not applied to a line headed by its entry. Chains listed by the source or under a name are the forms on record and can include a tag or linker.
UniProt O95619: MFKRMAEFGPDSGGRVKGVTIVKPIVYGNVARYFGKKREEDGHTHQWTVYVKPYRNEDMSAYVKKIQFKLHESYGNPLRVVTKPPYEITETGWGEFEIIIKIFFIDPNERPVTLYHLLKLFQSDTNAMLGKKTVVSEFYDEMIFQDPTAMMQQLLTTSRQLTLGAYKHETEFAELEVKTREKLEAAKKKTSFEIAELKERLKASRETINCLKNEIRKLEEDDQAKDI
SFB-tagged YEATS4 K64, 65, 69R (3KR) mutant (O95619, form named): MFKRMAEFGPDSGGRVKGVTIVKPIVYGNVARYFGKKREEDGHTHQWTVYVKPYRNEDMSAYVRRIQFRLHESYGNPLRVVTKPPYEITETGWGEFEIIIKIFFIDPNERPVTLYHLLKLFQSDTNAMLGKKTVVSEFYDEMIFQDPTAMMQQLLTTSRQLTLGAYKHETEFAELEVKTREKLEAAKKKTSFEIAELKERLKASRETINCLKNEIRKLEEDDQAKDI
UniProt Q7Z6Z7: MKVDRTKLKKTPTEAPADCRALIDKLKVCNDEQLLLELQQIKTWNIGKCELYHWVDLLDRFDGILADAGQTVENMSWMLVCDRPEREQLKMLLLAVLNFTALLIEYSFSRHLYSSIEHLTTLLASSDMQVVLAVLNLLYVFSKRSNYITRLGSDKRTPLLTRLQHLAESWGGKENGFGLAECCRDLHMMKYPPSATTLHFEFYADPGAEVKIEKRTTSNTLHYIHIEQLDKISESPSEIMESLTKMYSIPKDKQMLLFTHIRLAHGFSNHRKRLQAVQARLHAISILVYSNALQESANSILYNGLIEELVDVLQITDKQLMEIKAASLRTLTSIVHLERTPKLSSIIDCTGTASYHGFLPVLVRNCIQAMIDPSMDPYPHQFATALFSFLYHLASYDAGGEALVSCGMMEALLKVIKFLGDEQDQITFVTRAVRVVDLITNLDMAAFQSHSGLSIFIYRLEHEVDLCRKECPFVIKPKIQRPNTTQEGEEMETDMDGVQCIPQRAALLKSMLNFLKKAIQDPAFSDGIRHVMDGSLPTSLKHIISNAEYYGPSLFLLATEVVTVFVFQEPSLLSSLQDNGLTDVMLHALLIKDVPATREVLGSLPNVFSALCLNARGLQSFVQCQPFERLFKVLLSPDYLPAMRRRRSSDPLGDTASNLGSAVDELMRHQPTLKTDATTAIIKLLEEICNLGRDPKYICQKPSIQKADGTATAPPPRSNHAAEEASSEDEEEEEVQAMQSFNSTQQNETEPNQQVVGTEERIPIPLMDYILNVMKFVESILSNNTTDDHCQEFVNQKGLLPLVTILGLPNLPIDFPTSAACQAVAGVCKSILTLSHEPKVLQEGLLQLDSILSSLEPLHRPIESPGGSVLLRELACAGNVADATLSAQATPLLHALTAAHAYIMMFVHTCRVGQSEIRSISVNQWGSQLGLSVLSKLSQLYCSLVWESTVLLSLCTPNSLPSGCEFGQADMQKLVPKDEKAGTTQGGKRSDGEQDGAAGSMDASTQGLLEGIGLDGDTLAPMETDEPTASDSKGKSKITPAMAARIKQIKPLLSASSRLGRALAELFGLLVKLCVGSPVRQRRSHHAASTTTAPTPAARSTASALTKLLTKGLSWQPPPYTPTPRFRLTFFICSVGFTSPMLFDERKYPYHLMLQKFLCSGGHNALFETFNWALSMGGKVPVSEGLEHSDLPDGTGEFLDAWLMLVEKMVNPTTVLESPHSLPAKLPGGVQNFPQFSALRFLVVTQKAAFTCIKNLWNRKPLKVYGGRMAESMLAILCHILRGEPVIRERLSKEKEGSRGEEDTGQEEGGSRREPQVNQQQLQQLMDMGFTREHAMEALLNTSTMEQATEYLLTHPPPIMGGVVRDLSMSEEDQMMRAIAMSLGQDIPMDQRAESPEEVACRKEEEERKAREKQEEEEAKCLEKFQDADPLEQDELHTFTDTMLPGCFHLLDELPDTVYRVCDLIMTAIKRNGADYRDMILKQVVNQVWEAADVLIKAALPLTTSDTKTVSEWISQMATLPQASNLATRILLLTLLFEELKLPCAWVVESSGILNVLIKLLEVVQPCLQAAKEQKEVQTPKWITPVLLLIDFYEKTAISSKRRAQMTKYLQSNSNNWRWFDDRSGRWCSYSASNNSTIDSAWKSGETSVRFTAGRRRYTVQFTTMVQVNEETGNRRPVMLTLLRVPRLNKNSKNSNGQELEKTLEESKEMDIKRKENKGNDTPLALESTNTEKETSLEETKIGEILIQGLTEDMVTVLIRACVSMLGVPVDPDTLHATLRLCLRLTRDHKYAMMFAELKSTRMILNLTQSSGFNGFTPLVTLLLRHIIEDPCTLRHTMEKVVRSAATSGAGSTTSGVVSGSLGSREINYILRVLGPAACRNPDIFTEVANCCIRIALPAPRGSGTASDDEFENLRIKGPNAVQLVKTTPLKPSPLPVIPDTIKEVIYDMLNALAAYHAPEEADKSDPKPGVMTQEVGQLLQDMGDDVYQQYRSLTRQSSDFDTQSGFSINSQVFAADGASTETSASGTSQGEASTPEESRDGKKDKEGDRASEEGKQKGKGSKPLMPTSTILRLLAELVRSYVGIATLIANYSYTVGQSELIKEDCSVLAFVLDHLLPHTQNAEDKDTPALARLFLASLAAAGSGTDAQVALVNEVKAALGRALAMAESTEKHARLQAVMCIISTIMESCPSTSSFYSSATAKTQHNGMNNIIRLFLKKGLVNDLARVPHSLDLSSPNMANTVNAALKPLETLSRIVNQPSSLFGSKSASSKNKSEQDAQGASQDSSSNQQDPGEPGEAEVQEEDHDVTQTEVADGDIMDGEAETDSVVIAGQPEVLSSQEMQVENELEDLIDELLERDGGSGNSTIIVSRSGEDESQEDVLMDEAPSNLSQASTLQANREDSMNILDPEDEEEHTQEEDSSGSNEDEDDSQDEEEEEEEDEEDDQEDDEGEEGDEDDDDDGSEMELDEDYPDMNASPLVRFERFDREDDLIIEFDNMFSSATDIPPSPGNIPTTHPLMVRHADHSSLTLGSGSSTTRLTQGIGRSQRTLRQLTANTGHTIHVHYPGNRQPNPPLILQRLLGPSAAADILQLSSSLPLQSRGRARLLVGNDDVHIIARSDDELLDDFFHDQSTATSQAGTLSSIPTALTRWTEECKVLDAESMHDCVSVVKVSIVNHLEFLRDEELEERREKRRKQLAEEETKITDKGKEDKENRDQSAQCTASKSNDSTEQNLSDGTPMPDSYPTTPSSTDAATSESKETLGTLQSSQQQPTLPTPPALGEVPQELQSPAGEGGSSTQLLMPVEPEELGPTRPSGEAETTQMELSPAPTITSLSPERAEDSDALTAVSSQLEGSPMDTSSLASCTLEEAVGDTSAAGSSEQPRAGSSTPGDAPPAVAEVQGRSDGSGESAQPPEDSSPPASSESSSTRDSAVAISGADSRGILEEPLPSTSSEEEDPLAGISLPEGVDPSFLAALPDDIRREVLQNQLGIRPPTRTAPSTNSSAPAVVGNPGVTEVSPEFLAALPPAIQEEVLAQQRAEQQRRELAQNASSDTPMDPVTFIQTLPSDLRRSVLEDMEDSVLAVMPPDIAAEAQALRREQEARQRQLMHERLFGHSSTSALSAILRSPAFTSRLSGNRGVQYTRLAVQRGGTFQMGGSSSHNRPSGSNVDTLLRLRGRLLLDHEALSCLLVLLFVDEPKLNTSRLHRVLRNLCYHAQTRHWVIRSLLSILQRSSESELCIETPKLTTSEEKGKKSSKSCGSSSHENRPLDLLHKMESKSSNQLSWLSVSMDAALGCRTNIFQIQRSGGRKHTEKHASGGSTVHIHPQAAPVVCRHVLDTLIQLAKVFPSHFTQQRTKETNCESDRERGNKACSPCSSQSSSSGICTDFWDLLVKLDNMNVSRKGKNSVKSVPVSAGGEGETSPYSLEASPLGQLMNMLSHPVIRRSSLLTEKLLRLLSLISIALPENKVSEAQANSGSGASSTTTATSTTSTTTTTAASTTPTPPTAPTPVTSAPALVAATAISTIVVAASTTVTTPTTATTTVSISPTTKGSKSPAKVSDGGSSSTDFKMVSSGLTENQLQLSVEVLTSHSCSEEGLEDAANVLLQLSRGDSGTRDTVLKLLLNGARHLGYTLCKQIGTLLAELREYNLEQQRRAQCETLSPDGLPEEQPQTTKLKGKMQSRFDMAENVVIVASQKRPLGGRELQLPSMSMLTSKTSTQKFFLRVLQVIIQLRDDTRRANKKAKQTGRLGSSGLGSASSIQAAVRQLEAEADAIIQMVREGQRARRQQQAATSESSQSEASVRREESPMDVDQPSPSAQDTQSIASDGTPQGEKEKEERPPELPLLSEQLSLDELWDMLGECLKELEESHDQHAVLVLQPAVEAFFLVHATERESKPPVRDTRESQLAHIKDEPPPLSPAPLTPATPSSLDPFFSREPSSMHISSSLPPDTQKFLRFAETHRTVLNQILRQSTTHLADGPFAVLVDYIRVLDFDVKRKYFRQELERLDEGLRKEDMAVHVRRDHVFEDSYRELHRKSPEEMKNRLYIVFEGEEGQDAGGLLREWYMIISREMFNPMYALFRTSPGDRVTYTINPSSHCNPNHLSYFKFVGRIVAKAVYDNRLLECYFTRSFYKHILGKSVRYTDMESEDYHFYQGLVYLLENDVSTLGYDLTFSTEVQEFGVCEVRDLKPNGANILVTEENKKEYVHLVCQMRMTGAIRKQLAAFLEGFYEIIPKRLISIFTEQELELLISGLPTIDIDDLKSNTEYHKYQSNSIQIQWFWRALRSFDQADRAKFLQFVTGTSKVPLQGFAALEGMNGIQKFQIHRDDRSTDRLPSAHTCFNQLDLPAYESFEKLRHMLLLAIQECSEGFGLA

| binding [1] | binding [2] | binding [3] | binding [4] | binding [5] | Substance |
| --- | --- | --- | --- | --- | --- |
| binds | – | – | – | – | HUWE1, endogenous in T24 cells (from UniProt Q7Z6Z7 1-4374) (enzyme) |
| – | binds | binds | binds | binds | HA-HUWE1 (from UniProt Q7Z6Z7 1-4374) (enzyme) |

Source: article PMC11165526
